Data reported in paper PMC8112863.
Residue numbers refer to the chain shown, from its start. No constants are given. Whether binding was seen depends on the method and setting. In cells and extracts the contact can be indirect. Some binding calls cover weakened binding; strength is not graded here. Each block holds one molecule with its values, some of them ahead of it.

Amino acid sequences for entries named in this document (tags omitted).
UniProt Q9NRX1: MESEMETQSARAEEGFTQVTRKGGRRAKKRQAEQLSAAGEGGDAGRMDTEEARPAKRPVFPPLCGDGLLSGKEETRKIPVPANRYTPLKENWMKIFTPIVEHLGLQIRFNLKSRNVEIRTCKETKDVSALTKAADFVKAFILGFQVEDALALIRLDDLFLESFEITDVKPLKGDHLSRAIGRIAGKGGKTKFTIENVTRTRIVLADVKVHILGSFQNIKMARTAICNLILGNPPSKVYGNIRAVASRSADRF

Experiments:
[1] = molecular target: T1, RIO1(wt)-StHA, wild-type RIO1 (human) (UniProt Q9BRS2); assay: co-IP; RIO1(wt)-StHA bait from control cells (scramble siRNA), anti-HA affinity gel, TAP buffer washes, SDS elution, western blot
T1 sequence: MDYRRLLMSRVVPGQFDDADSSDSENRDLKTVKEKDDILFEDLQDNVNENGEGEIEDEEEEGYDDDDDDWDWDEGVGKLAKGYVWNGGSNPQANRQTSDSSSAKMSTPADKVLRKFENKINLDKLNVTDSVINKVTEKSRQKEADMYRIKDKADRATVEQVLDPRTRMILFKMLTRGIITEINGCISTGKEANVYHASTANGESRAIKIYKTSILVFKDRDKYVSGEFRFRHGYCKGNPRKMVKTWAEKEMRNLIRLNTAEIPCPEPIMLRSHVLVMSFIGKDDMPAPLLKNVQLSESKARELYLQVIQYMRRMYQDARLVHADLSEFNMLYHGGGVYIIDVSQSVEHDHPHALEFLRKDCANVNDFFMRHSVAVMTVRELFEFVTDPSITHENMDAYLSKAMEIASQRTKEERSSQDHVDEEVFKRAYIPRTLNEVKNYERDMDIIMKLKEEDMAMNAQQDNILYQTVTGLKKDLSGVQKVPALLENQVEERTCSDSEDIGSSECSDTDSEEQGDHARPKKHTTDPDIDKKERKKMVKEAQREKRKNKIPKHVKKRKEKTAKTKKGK

HASt-LTV1 = molecular target: T2, HASt-LTV1 (UniProt Q96GA3); assay: co-IP; HASt- or StHA-tagged bait captured from HEK293 lysate on anti-HA affinity gel, washed with TAP buffer, eluted with SDS sample buffer, western blot; cells treated with scramble or RPS26 siRNA for 48 hr
T2 sequence: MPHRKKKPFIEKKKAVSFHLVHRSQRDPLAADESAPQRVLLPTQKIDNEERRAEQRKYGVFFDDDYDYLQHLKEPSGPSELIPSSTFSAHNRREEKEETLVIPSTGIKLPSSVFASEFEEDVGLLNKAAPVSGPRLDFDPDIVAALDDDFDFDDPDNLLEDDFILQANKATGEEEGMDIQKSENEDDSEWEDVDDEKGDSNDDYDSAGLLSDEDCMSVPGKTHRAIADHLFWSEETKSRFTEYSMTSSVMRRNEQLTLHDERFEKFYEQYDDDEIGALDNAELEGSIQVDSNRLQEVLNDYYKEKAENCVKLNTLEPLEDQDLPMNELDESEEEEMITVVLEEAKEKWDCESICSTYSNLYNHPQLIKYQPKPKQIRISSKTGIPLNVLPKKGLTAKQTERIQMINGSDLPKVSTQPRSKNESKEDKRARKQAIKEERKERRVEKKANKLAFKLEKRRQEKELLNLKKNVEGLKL

[2] = molecular target: T3, RIO1(kd)-StHA, catalytically inactive RIO1 mutated on aspartic acid 324 (D324A) (human) (UniProt Q9BRS2); assay: as above
T3 sequence: T1 sequence with D324A

[3] = molecular target: T1, RIO1(wt)-StHA, wild-type RIO1 (human); assay: as above

binding [1]: binds weakly
binding (HASt-LTV1): binds
binding [2]: binds
binding [3]: binds
Molecule: DIM2 (from UniProt Q9NRX1 1-252)

binding [2]: binds
B1: EIF1AD (protein, UniProt Q8N9N8 1-165)
chain: MSQATKRKHVVKEVLGEHIVPSDQQQIVRVLRTPGNNLHEVETAQGQRFLVSMPSKYRKNIWIKRGDFLIVDPIEEGEKVKAEISFVLCKDHVRSLQKEGFWPEAFSEVAEKHNNRNRQTQPELPAEPQLSGEESSSEDDSDLFVNTNRRQYHESEEESEEEEAA

binding [1]: binds weakly
binding [2]: binds
binding [3]: binds
B2: NOB1 (enzyme, UniProt Q9ULX3 1-412)
chain: MAPVEHVVADAGAFLRHAALQDIGKNIYTIREVVTEIRDKATRRRLAVLPYELRFKEPLPEYVRLVTEFSKKTGDYPSLSATDIQVLALTYQLEAEFVGVSHLKQEPQKVKVSSSIQHPETPLHISGFHLPYKPKPPQETEKGHSACEPENLEFSSFMFWRNPLPNIDHELQELLIDRGEDVPSEEEEEEENGFEDRKDDSDDDGGGWITPSNIKQIQQELEQCDVPEDVRVGCLTTDFAMQNVLLQMGLHVLAVNGMLIREARSYILRCHGCFKTTSDMSRVFCSHCGNKTLKKVSVTVSDDGTLHMHFSRNPKVLNPRGLRYSLPTPKGGKYAINPHLTEDQRFPQLRLSQKARQKTNVFAPDYIAGVSPFVENDISSRSATLQVRDSTLGAGRRRLNPNASRKKFVKKR
